# Data as given in PubChem BioAssay AID1259290 (Sanger Institute, 2017)
# Test: 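Identify kinases needed for colorectal cancer cell survival, with or without anchor drugs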 (primary screen)
# Cell system: human SNUC1 colorectal cancer cells
# Reagents: siRNA pool against human genes
# Treatment: anchor drugs BYL719 1 µM, cetuximab 5 µg/ml or trametinib 10 nM, or DMSO vehicle alone
# Read-out: 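Cell viability relative to a non-targeting siRNA control, replicate-averaged, as robust z-score for knock-down alone, plus a synergy score for each anchor drug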
# Direction: viability z-score, siRNA alone: higher = more viable cells; low values mean essential gene; viability vs control, siRNA alone: higher = more viable cells; synergy score with BYL719: higher = stronger synthetic lethal effect with drug
# Active means: 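a knock-down without drug scoring a robust z under -3 counts as essential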
# Meaning of the calls: active = essential: knock-down alone cut viability (z below -3); inactive = no clear viability loss with knock-down alone
# The whole screen tested 794 reagents; below is an unselected part. Of all reagents, 9 (1.1%) were called active. 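Calls rest on knock-down alone, not drug synergy; synergy above 0.15 was grouped apart and does not affect calls.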 Viability is capped at 1. Further read-outs or replicates are left out here. Not given: the amount of reagent, the time to read-out.
gene,PubChem SID,"viability z-score, siRNA alone","viability vs control, siRNA alone",synergy score with BYL719,activity call
SCYL1,SID152146872,-1.29,0.799,-0.329,inactive
LTK,SID135620624,-0.187,0.899,-0.0479,inactive
CDKL4,SID135624323,0.727,0.981,-0.213,inactive
PRKCE,SID135620860,0.936,1,-0.134,inactive
TPD52L3,SID56479192,0.936,1,-0.198,inactive
IPMK,SID152147042,0.885,0.995,-0.202,inactive
PKLR,SID152148534,0.936,1,-0.198,inactive
GSK3B,SID56478468,0.407,0.952,-0.121,inactive
MYO3A,SID152148134,0.296,0.942,0.0889,inactive
HCK,SID135620622,-0.303,0.888,-0.146,inactive
WHR1,SID152154332,0.457,0.957,-0.233,inactive
RPS6KC1,SID135620976,-0.6,0.862,0.0416,inactive
NEK11,SID152147168,-0.723,0.851,-0.0397,inactive
EIF2AK2,SID56478676,0.452,0.956,-0.185,inactive
STK40,SID56479025,0.478,0.959,-0.0735,inactive
MYLK,SID152147192,-0.376,0.882,-0.223,inactive
JAK2,SID56478524,-2.32,0.707,-0.331,inactive
ULK1,SID56478976,0.936,1,-0.121,inactive
PRKCQ,SID56478674,0.135,0.928,0.103,inactive
PDGFRL,SID134315029,0.936,1,-0.122,inactive
PTPN11,SID134310183,-1.26,0.802,-0.146,inactive
WNK1,SID152148140,0.936,1,-0.198,inactive
ERN1,SID135620914,0.936,1,-0.0287,inactive
MOS,SID56478732,0.936,1,0.0397,inactive
CASK,SID56479000,0.416,0.953,0.00996,inactive
MELK,SID56478756,0.799,0.988,-0.144,inactive
CDK1,SID56478584,0.936,1,-0.198,inactive
PANK1,SID56478765,0.936,1,-0.141,inactive
DLG1,SID152148481,-0.228,0.895,0.0309,inactive
NTN4,SID152155179,-1.58,0.774,-0.0189,inactive
CSNK1D,SID56478658,0.936,1,0.0118,inactive
PTPRU,SID152150387,-0.857,0.839,-0.132,inactive
EPHB1,SID152152600,0.39,0.951,-0.0969,inactive
SRPK1,SID56478751,0.936,1,-0.0222,inactive

2 successive entries already listed, for reference:
gene,PubChem SID,"viability z-score, siRNA alone","viability vs control, siRNA alone",synergy score with BYL719,activity call
IPMK,SID152147042,0.885,0.995,-0.202,inactive
PKLR,SID152148534,0.936,1,-0.198,inactive
